From publication PMC12341946
Changes are numbered by the printed parent chain. No constants are given. Whether binding was seen depends on the method and setting. In cells and extracts the contact can be indirect. Some binding calls cover weakened binding; strength is not graded here. For part of these data: Sequences can lack the tags named with a protein.

T1: Mip6-GFP (S. cerevisiae) (UniProt P38760)
T1 sequence: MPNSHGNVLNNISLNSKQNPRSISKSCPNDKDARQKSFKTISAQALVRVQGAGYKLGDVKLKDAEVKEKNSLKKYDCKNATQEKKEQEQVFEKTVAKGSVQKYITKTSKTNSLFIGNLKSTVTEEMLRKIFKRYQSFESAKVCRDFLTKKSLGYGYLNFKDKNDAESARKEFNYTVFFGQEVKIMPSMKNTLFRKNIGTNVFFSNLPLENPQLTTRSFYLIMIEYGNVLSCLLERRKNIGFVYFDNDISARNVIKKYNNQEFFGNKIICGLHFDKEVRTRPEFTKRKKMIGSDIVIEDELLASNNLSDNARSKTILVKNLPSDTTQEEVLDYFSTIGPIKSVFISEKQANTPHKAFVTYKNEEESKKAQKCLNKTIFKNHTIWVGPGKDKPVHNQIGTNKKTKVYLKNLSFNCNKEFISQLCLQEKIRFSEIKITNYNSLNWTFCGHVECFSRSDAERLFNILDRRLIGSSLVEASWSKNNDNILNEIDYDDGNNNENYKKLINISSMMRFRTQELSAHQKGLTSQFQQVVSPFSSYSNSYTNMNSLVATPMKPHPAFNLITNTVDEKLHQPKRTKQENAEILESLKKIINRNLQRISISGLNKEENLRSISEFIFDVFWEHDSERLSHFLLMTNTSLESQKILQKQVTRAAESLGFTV

T2: Mip6W442A-GFP (S. cerevisiae) (UniProt P38760)
T2 sequence: T1 sequence with W442A

T3: Mip6-TAP (S. cerevisiae) (UniProt P38760)
T3 sequence: T1 sequence

B1: Rpd3-TAP (enzyme, UniProt P32561 1-433)
chain: MVYEATPFDPITVKPSDKRRVAYFYDADVGNYAYGAGHPMKPHRIRMAHSLIMNYGLYKKMEIYRAKPATKQEMCQFHTDEYIDFLSRVTPDNLEMFKRESVKFNVGDDCPVFDGLYEYCSISGGGSMEGAARLNRGKCDVAVNYAGGLHHAKKSEASGFCYLNDIVLGIIELLRYHPRVLYIDIDVHHGDGVEEAFYTTDRVMTCSFHKYGEFFPGTGELRDIGVGAGKNYAVNVPLRDGIDDATYRSVFEPVIKKIMEWYQPSAVVLQCGGDSLSGDRLGCFNLSMEGHANCVNYVKSFGIPMMVVGGGGYTMRNVARTWCFETGLLNNVVLDKDLPYNEYYEYYGPDYKLSVRPSNMFNVNTPEYLDKVMTNIFANLENTKYAPSVQLNHTPRDAEDLGDVEEDSAEAKDTKGGSQYARDLHVEHDNEFY
B2: Rpd3 (enzyme, UniProt P32561 1-433)
chain: B1 chain

Experiments:
[1] = target: T1, Mip6-GFP (S. cerevisiae); test: co-IP; GFP-Trap beads (printed GFT-TRAP, ChromoTek) on yeast lysate, 1 h at 4°C; lysis buffer 10 mM Tris-HCl pH 7.5, 150 mM NaCl, 0.5 mM EDTA, 0.5% NP-40; cells under optimal conditions or after heat shock at 39°C for 20 min; Western blot with α-GFP and α-TAP
[2] = target: T2, Mip6W442A-GFP (S. cerevisiae); test: as above
[3] = target: T3, Mip6-TAP (S. cerevisiae); test: pull-down; Mip6-TAP pulldown; method and way of identification not described in the text (Supplementary File 4)

| Binder | binding [1] | binding [2] | binding [3] |
| --- | --- | --- | --- |
| B1 | binds | binds | – |
| B2 | – | – | binds |
